# Measured values published in US20020160975A1, “Conserved XIAP-interaction motif in caspase-9 and Smac/DIABLO for mediating apoptosis” (Thomas Jefferson University, priority 2001, published 2002).
# The chains behind the UniProt entries cited, without tags or fusion partners. Residues count along the entry.
# UniProt P98170, residues 238-358: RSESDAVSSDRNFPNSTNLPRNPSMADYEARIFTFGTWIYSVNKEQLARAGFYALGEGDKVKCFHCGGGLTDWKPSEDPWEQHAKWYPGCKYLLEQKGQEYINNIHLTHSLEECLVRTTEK
# Results are given in words; binding and its absence hold for the method and conditions named. Some binding calls cover weakened binding; strength is not graded here.
# Assays:
# [1] = molecular target: isolated BIR3 domain of XIAP (UniProt P98170); experiment: GST pull-down competition, Smac-GST on resin, BIR3 in solution
# [2] = molecular target: isolated BIR3 domain of XIAP (UniProt P98170); experiment: GST pull-down competition, 200 µM peptide, Smac-GST as competitor partner
# [3] = molecular target: isolated BIR3 domain of XIAP (UniProt P98170); experiment: GST pull-down competition, p12-GST on resin, BIR3 in solution
# [4] = molecular target: isolated BIR3 domain of XIAP (UniProt P98170); experiment: GST pull-down competition, 200 µM peptide, p12-GST as competitor partner
binder,measurement,setting,value
ATPFQEGLRTFDQLD [chemically synthesized caspase-9 linker peptide (…)],binding,[1],binds
same,binding,[2],binds
AVPIAQK [Smac-N7 peptide (AVPIAQK)],binding,[3],binds
same,binding,[4],binds
